Data reported in patent publication US20070248617A1 (published 2007).
No constants are given. Whether binding was seen depends on the method and setting. Some binding calls cover weakened binding; strength is not graded here. Sequences can lack the tags named with a protein.

By UniProt entry, the sequences of proteins in these tests, tags left out. Where a name states a change or a piece, a line headed by the entry shows the natural chain unless it says otherwise.
UniProt O35235: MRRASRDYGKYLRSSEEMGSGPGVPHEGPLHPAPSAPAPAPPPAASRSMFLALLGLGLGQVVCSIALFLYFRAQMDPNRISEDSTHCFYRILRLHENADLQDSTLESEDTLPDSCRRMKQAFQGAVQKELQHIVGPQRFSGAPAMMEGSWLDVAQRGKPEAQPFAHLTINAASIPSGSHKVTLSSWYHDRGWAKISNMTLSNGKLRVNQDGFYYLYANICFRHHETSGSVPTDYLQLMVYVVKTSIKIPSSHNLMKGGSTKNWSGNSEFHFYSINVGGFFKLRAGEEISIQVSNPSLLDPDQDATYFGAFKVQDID

Target: mouse RANKL protein (mouse) (UniProt O35235)
Test: ELISA, mouse RANKL coated at 10 µg/ml, serial dilutions of mouse RANK-hFc, anti-hFc-HRP detection

binding: binds
B1: recombinant mouse RANK-hFc fusion protein (Fc fusion, UniProt O35305 31-214, looked up, not shown: a dimerising Fc or GST)
chain: VTPPCTQERHYEHLGRCCSRCEPGKYLSSKCTPTSDSVCLPCGPDEYLDTWNEEDKCLLHKVCDAGKALVAVDPGNHTAPRRCACTAGYHWNSDCECCRRNTECAPGFGAQHPLQLNKDTVCTPCLLGFFSDVFSSTDKCKPWTNCTLLGKLEAHQGTTESDVVCSSSMTLRRPPKEAQAYLPS
